Data as given in PubChem BioAssay AID1259254 (NCATS, 2017).
Aim: 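Finding genes that stop cells copying their DNA twice in one cycle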 (primary screen). Cell system: human HCT116 colorectal cancer cells. Knock-down reagent: single siRNA against human genes. Time to read-out: 3 days. Measurement: 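Nuclei stained with Hoechst and imaged; cell-cycle phase assigned by DNA content; G2 share scaled per plate, non-targeting siRNA 0%, GMNN siRNA 100%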. Direction: G2 robust z-score: higher = more G2 cells, more excess DNA replication. Rule for the call: 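Active siRNAs have a G2 robust z of 5 or more median absolute deviations over the median, which in these data means about 38% or higher of GMNN control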.
Shown is an unselected part of about 59,000 deposited reagents. Of all reagents, about 1,550 (2.6%) got an active call. 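G2 share is only a proxy for re-replication; each gene was hit by three separate siRNAs, and active genes were retested.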 The numbers tell different reagents against one gene apart. Not all columns of the deposit are shown. Not given: the amount of reagent.

G2 robust z-score, by target gene and reagent
SPIN2B (spindlin family member 2B): #1 2.58 inactive; #2 0.342 inactive; #3 0.24 inactive
GPR158 (G protein-coupled receptor 158): #1 -0.37 inactive; #2 0.678 inactive; #3 2 inactive
SLC17A5: #1 -0.724 inactive; #2 -1.03 inactive; #3 -0.611 inactive
BAGE (B melanoma antigen): #1 1.14 inactive; #2 -0.647 inactive; #3 4.15 inactive
POLR1E (RNA polymerase I subunit E): #1 2.46 inactive; #2 0.116 inactive; #3 1.32 inactive
FKBP15 (FKBP prolyl isomerase family member 15): #1 0.541 inactive; #2 1.38 inactive; #3 0.668 inactive
LYAR (Ly1 antibody reactive): #1 0.957 inactive; #2 0.343 inactive; #3 -0.697 inactive
LORICRIN (loricrin cornified envelope precursor protein): #1 1.05 inactive; #2 1.5 inactive; #3 0.332 inactive
TAF13 (TATA-box binding protein associated factor 13): #1 0.337 inactive; #2 0.446 inactive; #3 2.16 inactive
LSM1 (LSM1 homolog, mRNA degradation associated): #1 0.57 inactive; #2 0.195 inactive; #3 -0.665 inactive
ACADSB (acyl-CoA dehydrogenase short/branched chain): #1 -1.44 inactive; #2 -0.318 inactive; #3 2.7 inactive
SERP2: #1 6.04 active; #2 -0.187 inactive; #3 -0.796 inactive
CROCCP3 (CROCC pseudogene 3): #1 0.704 inactive; #2 -0.77 inactive; #3 0.887 inactive
RPS29 (ribosomal protein S29): #1 5 inactive; #2 2.52 inactive; #3 1.31 inactive
OR5F1 (olfactory receptor family 5 subfamily F member 1): #1 4.37 inactive; #2 -0.56 inactive; #3 -0.206 inactive
NPIPA1 (nuclear pore complex interacting protein family member A1): #1 1.12 inactive; #2 0.38 inactive; #3 1.07 inactive
PCSK1N (proprotein convertase subtilisin/kexin type 1 inhibitor): #1 1.36 inactive; #2 0.226 inactive; #3 2.28 inactive
RNF32 (ring finger protein 32): #1 -0.738 inactive; #2 1.13 inactive; #3 -0.521 inactive
LCOR (ligand dependent nuclear receptor corepressor): #1 -0.801 inactive; #2 -0.153 inactive; #3 0.672 inactive; #4 2.18 inactive; #5 1.39 inactive; #6 -0.333 inactive
ERCC6 (ERCC excision repair 6, chromatin remodeling factor): #1 -0.489 inactive; #2 0.388 inactive; #3 -0.355 inactive
MYC (MYC proto-oncogene, bHLH transcription factor): #1 -1.32 inactive; #2 -1.31 inactive; #3 0.364 inactive
TMIGD1 (transmembrane and immunoglobulin domain containing 1): #1 1.41 inactive; #2 -0.877 inactive; #3 -0.514 inactive

Reformatted: results already given.
target gene,reagent no.,G2 robust z-score,outcome
BAGE (B melanoma antigen),3,4.15,inactive
POLR1E (RNA polymerase I subunit E),1,2.46,inactive
POLR1E (RNA polymerase I subunit E),2,0.116,inactive
POLR1E (RNA polymerase I subunit E),3,1.32,inactive
FKBP15 (FKBP prolyl isomerase family member 15),1,0.541,inactive
FKBP15 (FKBP prolyl isomerase family member 15),2,1.38,inactive
FKBP15 (FKBP prolyl isomerase family member 15),3,0.668,inactive
LYAR (Ly1 antibody reactive),1,0.957,inactive
LYAR (Ly1 antibody reactive),2,0.343,inactive
